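Methionyl-tRNA synthetase (putative), Leishmania donovani (UniProt E9BF75). Primary screen of methionyl-tRNA synthetase; the read-out is not stated. The test concentration is not given. The values are filed as inhibition. Of about 68,000 compounds tested this way, about 24 (0.035%) reached 50% or more in at least one test.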

The chains behind the UniProt entries cited, without tags or fusion partners.
UniProt E9BF75, entry or part of it: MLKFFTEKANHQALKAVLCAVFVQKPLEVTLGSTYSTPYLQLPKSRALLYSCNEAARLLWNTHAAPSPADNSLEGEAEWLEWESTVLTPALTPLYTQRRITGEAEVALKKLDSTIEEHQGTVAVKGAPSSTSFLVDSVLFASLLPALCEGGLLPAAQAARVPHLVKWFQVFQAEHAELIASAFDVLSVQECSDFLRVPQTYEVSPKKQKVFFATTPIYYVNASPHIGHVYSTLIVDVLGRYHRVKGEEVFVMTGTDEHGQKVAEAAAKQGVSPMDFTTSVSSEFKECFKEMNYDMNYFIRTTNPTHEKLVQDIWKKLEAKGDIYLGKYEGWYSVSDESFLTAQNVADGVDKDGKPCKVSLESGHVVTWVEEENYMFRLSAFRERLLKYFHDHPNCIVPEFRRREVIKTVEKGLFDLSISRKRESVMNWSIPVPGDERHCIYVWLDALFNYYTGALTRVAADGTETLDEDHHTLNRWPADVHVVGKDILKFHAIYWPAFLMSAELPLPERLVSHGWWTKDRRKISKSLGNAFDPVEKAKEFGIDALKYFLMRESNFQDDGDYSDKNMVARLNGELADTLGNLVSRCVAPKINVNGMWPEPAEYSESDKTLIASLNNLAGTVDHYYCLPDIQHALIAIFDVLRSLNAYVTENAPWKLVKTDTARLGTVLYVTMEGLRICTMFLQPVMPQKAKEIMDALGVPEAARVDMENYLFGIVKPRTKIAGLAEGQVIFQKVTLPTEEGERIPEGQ

All values are in %. How 0% and 100% were set is not recorded. Most values in the screen are low, and negative values occur. Compounds were drawn at random from those tested, without regard to their results.

* CCc1cc(O)n2nc(C3CCN(C(=O)c4ccncc4)CC3)cc2n1 : 4.688%
* Cc1ccc(S(=O)(=O)NC(C)C#N)cc1Br (stereo not given) : -13.53%
* CS(=O)(=O)CCC(=O)Nc1ccsc1 : 16.62%
* Cc1ccc(N2CC3(CCN(Cc4nccn4C)C3)CC2=O)s1 (stereo not given) : 12.09%
* O=C(c1ccsc1)N1C[C@H]2CN(Cc3cccnc3)C(=O)[C@H]2C1 : 9.63%
* Cc1nc(NC(=O)N(C)Cc2ccsc2)nn1C : 12.85%
* COC(=O)c1cccc(S(=O)(=O)NCc2cccnc2N(C)C)c1 : 27.32%
* O=C(c1ccccn1)N1CCCC(c2nccn2CC2CCC2)C1 (stereo not given) : 3.448%
* CN(C(=O)Nc1cccc(C#N)c1)C1CCN(c2ccccn2)CC1 : 21.27%
* COCCOc1ncccc1CNC(=O)N1CCCCCC1 : 13.31%
* Cc1nnc(N2CCCC3(CN(Cc4ccncc4)CCO3)C2)o1 (stereo not given) : 9.5%
* CC(C)(C)OC(=O)N1CSC[C@@H]1C(=O)NCc1cccc(C#N)c1 : 7.971%
* COCC(=O)N1CC[C@H]2OCC[C@@]2(c2nc(C)no2)C1 : 11.4%
* Cn1cc(CN2CCOC(c3nccnc3-c3cccc(F)c3)C2)cn1 (stereo not given) : 7.595%
* Cc1cccnc1NCCNC(=O)c1cnc(-c2cccs2)nc1O : 19.38%
* O=C(c1cn(CC(=O)N2CCCCCC2)c2ccccc12)C1CC1 : 5.928%
* CC(C)Oc1ccc(CNC(=O)C2CCS(=O)(=O)C2)cn1 (stereo not given) : 3.01%
* COc1cc(N2CC[C@H]3O[C@@H](C(=O)NC4CCCC4)CC[C@H]32)ncn1 : 2.466%
* CC(=O)NCCc1ccc(C(=O)N2CCCC2c2cnn(C)c2)cc1 (stereo not given) : 2.362%
* CCOc1ccc(NC(=O)c2[nH]c(C)cc2C)cc1CO : 7.018%
* O=C(C1CCOCC1)N1CCO[C@H]2[C@H](OCC3CC3)CC[C@@H]21 : 11.82%
* CCc1n[nH]c(=O)c(C(=O)N2CCOC3(CCCC3)C2)c1CC : 21.53%
* COc1ncccc1C(=O)N1CC[C@H]2C[C@@H](C)O[C@@H]2C1 : 8.714%
* CC(C)Oc1ccc(C(=O)Nc2nncs2)cn1 : 11.03%
* CC(C)c1noc(C(C)Nc2nccc(CCC(F)(F)F)n2)n1 (stereo not given) : 11.54%
* O=C(c1ccc(-c2ccsc2)nc1)N1CCCN(C2CCCCC2)CC1 : 4.556%
* CNC(=O)COC(=O)c1cccc(-n2ccc(C(F)(F)F)n2)c1 : 16.72%
* COCc1cncc2c1CCN(Cc1cccnc1)C2 : 2.885%
* CC(C)=CCN1CC2(CCN(Cc3c(F)cccc3F)CC2)CC1=O : 10.07%
* Cc1ccccc1OCCC(=O)N1CCCC(n2cncn2)C1 (stereo not given) : 11.66%
* CCc1cc(C(=O)N2CCCC(Cc3ccc(NC)nn3)C2)on1 (stereo not given) : 4%
* Cc1nccn1C1CCCN(C(=O)c2ccc(N3CCCC3)nn2)C1 (stereo not given) : 17.32%

The first 3 entries again:

* CCc1cc(O)n2nc(C3CCN(C(=O)c4ccncc4)CC3)cc2n1 : 4.688%
* Cc1ccc(S(=O)(=O)NC(C)C#N)cc1Br (stereo not given) : -13.53%
* CS(=O)(=O)CCC(=O)Nc1ccsc1 : 16.62%

From ChEMBL document CHEMBL3988442, “University of Dundee, Small-Polar-MMV Screening Library” (2021).